{"sequences": {"note": "Protein sequences, listed by entry. Tags and fused reporters are not part of them.", "UniProt Q0JBA9, entry or part of it": "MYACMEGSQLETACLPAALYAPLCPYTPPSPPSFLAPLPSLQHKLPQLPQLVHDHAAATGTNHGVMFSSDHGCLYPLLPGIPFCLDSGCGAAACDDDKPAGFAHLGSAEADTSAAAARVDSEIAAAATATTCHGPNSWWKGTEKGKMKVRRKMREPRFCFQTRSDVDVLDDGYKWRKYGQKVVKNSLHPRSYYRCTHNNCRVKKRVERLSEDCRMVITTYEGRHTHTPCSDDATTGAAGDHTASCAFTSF"}, "source": "paper PMC7819943", "about": "“Rice protein-binding microarrays: a tool to detect cis-acting elements near promoter regions in rice”", "note": "This is one part of the list.", "data": [{"target": "OsWRKY34 (Oryza sativa, UniProt Q0JBA9 1-250)", "assay": "protein-binding microarray (RPBM); PBS, 2% BSA, 51.3 ng/ul salmon testes DNA, 50 uM zinc acetate, 200 nM TF, 25 C, 1 h; high values mean tight binding", "details": "protein: recombinant; tags: N-terminal polyhistidine and DsRed monomer fusion (pET32a); label: CyDye5-dUTP incorporated in the synthesized complementary strand; 3' TTTTT single-stranded linker to array surface; dsDNA, one strand shown", "in_short": "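Transcription factors, each fused N-terminally to a polyhistidine tag and DsRed, were expressed in E. coli BL21-CodonPlus and purified on Ni–NTA. A custom Agilent array was made double-stranded by primer extension with Cy5-dUTP and blocked with 2% BSA. It was incubated with 200 nM protein in PBS, 2% BSA, salmon testes DNA and 50 µM zinc acetate at 25 °C for 1 h, then washed. The binding signal is per-feature fluorescence intensity (arbitrary units) read on an Axon 4000B scanner.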", "values": [{"sequence": "TTCAACCATTCCACTCTATTAACCCATCACATTTTAATACCGGAGTCACCTAGTGCAG", "binding signal": "9280 fluorescence intensity (a.u.)"}, {"sequence": "ATTCCTCTCTCTTCCACCGCTCCGCCTTCCTTTGATCCTTCGGAGTCACCTAGTGCAG", "binding signal": "11500 fluorescence intensity (a.u.)"}, {"sequence": "ATGTTTGACGCTGTTGACTTTTTTAAACATATTTGACTCTCGGAGTCACCTAGTGCAG", "binding signal": "21500 fluorescence intensity (a.u.)"}, {"sequence": "TCTCCTCCACCTCAGCATTTAGCCGGCTTATAGCCTACTACGGAGTCACCTAGTGCAG", "binding signal": "8830 fluorescence intensity (a.u.)"}, {"sequence": "ACATTTTCACGAGTCTTTTCACTTCCGCCCGCGCCCAAGTCGGAGTCACCTAGTGCAG", "binding signal": "11800 fluorescence intensity (a.u.)"}, {"sequence": "GGTACAATTAATTACTCGCGCCACCTATCCAATTTCCCACCGGAGTCACCTAGTGCAG", "binding signal": "8760 fluorescence intensity (a.u.)"}, {"sequence": "AAGTCAGTATGCATATGCCTCCAATCTCTGCAGTTCCCAGCGGAGTCACCTAGTGCAG", "binding signal": "9250 fluorescence intensity (a.u.)"}, {"sequence": "GAGTCGTCTTCTTCCTCTCTCTCTCTCTCTCAGCCAGCCCCGGAGTCACCTAGTGCAG", "binding signal": "8890 fluorescence intensity (a.u.)"}, {"sequence": "GCCGCCGCTTGCCGCCACGCCCGTCCACCGCCGCTCCTCCCGGAGTCACCTAGTGCAG", "binding signal": "9640 fluorescence intensity (a.u.)"}, {"sequence": "AATTTTAAGGACCATATTAGCTATTCTCCTTTTTATTTTTCGGAGTCACCTAGTGCAG", "binding signal": "10100 fluorescence intensity (a.u.)"}, {"sequence": "CTGCTTTTTATTTTTCTCCGATTAATGTGAGAATTTCTAGCGGAGTCACCTAGTGCAG", "binding signal": "8690 fluorescence intensity (a.u.)"}, {"sequence": "CACCTCATTGGGCTTTTATCGCGGCCTTATTTATTGTTAGCGGAGTCACCTAGTGCAG", "binding signal": "11000 fluorescence intensity (a.u.)"}, {"sequence": "TTGGCTATCGTTGATGGATTTAACTCTTTGTTGTTTTTCTCGGAGTCACCTAGTGCAG", "binding signal": "9640 fluorescence intensity (a.u.)"}, {"sequence": "ATTACTCCTGCATTTCCTCTCGTTTTTTCTACCTAATATTCGGAGTCACCTAGTGCAG", "binding signal": "8920 fluorescence intensity (a.u.)"}, {"sequence": "CACAACCTTTGTTGTTTTTCTGACAAAGAAAATATAACTTCGGAGTCACCTAGTGCAG", "binding signal": "12000 fluorescence intensity (a.u.)"}, {"sequence": "AACTGCATTGTACAACTCGTAGATATATACTACCATCCAACGGAGTCACCTAGTGCAG", "binding signal": "8080 fluorescence intensity (a.u.)"}, {"sequence": "ATAATATGACTACTGTCCGTCCGAATCCGCTCCGATTTCACGGAGTCACCTAGTGCAG", "binding signal": "9740 fluorescence intensity (a.u.)"}, {"sequence": "TTCTCTCCGGTCAAATTTCCACCCACAATTTCTCATGATCCGGAGTCACCTAGTGCAG", "binding signal": "8480 fluorescence intensity (a.u.)"}, {"sequence": "CTCATCCGTCCATCGCTATCCCCTATCCTCCTCGCTGTAGCGGAGTCACCTAGTGCAG", "binding signal": "10600 fluorescence intensity (a.u.)"}, {"sequence": "CGTGGCCTCGCCATCCGACACTGTGCCTCTCATCCCGCGACGGAGTCACCTAGTGCAG", "binding signal": "8290 fluorescence intensity (a.u.)"}, {"sequence": "TAAGCCCATTTACATTTTCCAACCCATCCCATATTCATATCGGAGTCACCTAGTGCAG", "binding signal": "8270 fluorescence intensity (a.u.)"}, {"sequence": "TTGATACCTTGATTTCAGTTGCACTATCAATTCTTCTTGACGGAGTCACCTAGTGCAG", "binding signal": "9650 fluorescence intensity (a.u.)"}, {"sequence": "CCCACCACCGCATGGCCGGTGCGTTGACCTGTCAGTCTCCCGGAGTCACCTAGTGCAG", "binding signal": "14900 fluorescence intensity (a.u.)"}, {"sequence": "CTTGCTCATCTTTGCCGATTTGTTTCTTCTCGAGAGCCTACGGAGTCACCTAGTGCAG", "binding signal": "14400 fluorescence intensity (a.u.)"}, {"sequence": "CCTCGTGGGTGGGTGTGCGGGTGCGGGACTCGGTGGGATGCGGAGTCACCTAGTGCAG", "binding signal": "12100 fluorescence intensity (a.u.)"}, {"sequence": "ATTCTGTTTCTTCTGCATCAGAGATTCTCGTCTGTTTAGTCGGAGTCACCTAGTGCAG", "binding signal": "9460 fluorescence intensity (a.u.)"}, {"sequence": "AGCTTGTCCGGTCTACAACATGTGCAGTTCAGTTTTGTATCGGAGTCACCTAGTGCAG", "binding signal": "8560 fluorescence intensity (a.u.)"}, {"sequence": "GACACGACTCCACGCACCGTTCCACCTAGCAACTGACGTCCGGAGTCACCTAGTGCAG", "binding signal": "10200 fluorescence intensity (a.u.)"}, {"sequence": "TGCGCTTGTGGTTTGTGGTGTATGTGTGTGTAATCGAGAACGGAGTCACCTAGTGCAG", "binding signal": "10700 fluorescence intensity (a.u.)"}, {"sequence": "GCAGCCATTTCGCCCTTCTTTTTTCTTCCTTCCGAGGAAACGGAGTCACCTAGTGCAG", "binding signal": "9430 fluorescence intensity (a.u.)"}, {"sequence": "GACCAAACATTTCCACTACTTGTCCTACTACTAACATTTTCGGAGTCACCTAGTGCAG", "binding signal": "13900 fluorescence intensity (a.u.)"}, {"sequence": "CATATCGTCGACCGACCAACTCTTACACGATCGATCGATCCGGAGTCACCTAGTGCAG", "binding signal": "8290 fluorescence intensity (a.u.)"}, {"sequence": "CCTCACCTCACCATTTCACCAACCACCTCGCGTACTCCGGCGGAGTCACCTAGTGCAG", "binding signal": "9300 fluorescence intensity (a.u.)"}, {"sequence": "GAAATCCGGTGGTTGGTTGGTGGCTTAGTGCTGGCGTGCTCGGAGTCACCTAGTGCAG", "binding signal": "8500 fluorescence intensity (a.u.)"}, {"sequence": "TTCTTGATTCTTGCTGCTTCTTGCTTCTTGTTGCTGTTGTCGGAGTCACCTAGTGCAG", "binding signal": "8430 fluorescence intensity (a.u.)"}, {"sequence": "GTGGTGTTGGATAGTTTGATAGGCTGCTTCCCTACTAGGCCGGAGTCACCTAGTGCAG", "binding signal": "8340 fluorescence intensity (a.u.)"}, {"sequence": "TTTGCTGTGGGATATGTGGATGAATGCATGTTATACATTACGGAGTCACCTAGTGCAG", "binding signal": "10400 fluorescence intensity (a.u.)"}, {"sequence": "ACATTTTTACCACTATTCACACTATTGTTTGTCCTATCAACGGAGTCACCTAGTGCAG", "binding signal": "8330 fluorescence intensity (a.u.)"}, {"sequence": "GTCTCGTCCCGTCCCTGCGCTGCACGTCTCCGCCTCCAAGCGGAGTCACCTAGTGCAG", "binding signal": "13100 fluorescence intensity (a.u.)"}, {"sequence": "AAGTAATTATTAATTCTTTTCCTATCATTTGTTTCATTATCGGAGTCACCTAGTGCAG", "binding signal": "9270 fluorescence intensity (a.u.)"}, {"sequence": "ATCGCCGCACGCCTCCTCTCCAGAACACTCGCCCGCCACACGGAGTCACCTAGTGCAG", "binding signal": "10200 fluorescence intensity (a.u.)"}, {"sequence": "ATGCGCTCCGCCCTTCTCATCCTCTTCCACTTTATTACGGCGGAGTCACCTAGTGCAG", "binding signal": "10300 fluorescence intensity (a.u.)"}, {"sequence": "CCGCGCGTCCACCTCTCGCGAGCTCGTTACCCCAAACCCTCGGAGTCACCTAGTGCAG", "binding signal": "10400 fluorescence intensity (a.u.)"}, {"sequence": "TTTCATCCATTCCCAAGGATCATTACAATGTGCTAGTTTACGGAGTCACCTAGTGCAG", "binding signal": "8070 fluorescence intensity (a.u.)"}, {"sequence": "ACTTCTAATATTCCTTATTTTTAATTCCGAATTTCTATAACGGAGTCACCTAGTGCAG", "binding signal": "8170 fluorescence intensity (a.u.)"}, {"sequence": "TTCTTTCTAGTGGTGGTGGCCTGGTGGGTTAAACTGAGTTCGGAGTCACCTAGTGCAG", "binding signal": "8740 fluorescence intensity (a.u.)"}, {"sequence": "GTGTTGTGTCGGGTGGTATGTTATTTACTCGTGTTGAGTTCGGAGTCACCTAGTGCAG", "binding signal": "12500 fluorescence intensity (a.u.)"}, {"sequence": "CATTCTCTTGGTCATGCATATTACAGCGCCATATCCTATACGGAGTCACCTAGTGCAG", "binding signal": "9080 fluorescence intensity (a.u.)"}, {"sequence": "TCTTTGTTGGTGTTGTGTATCTCTTCTCTATCAAACAAAACGGAGTCACCTAGTGCAG", "binding signal": "11000 fluorescence intensity (a.u.)"}, {"sequence": "AACCACCACAAGCCGTTAACCCCGTTGTTTACCTCCTCCTCGGAGTCACCTAGTGCAG", "binding signal": "8190 fluorescence intensity (a.u.)"}, {"sequence": "AAAGCTGCACCCATCCGTTTGTTCGCCACCATTTCCATCCCGGAGTCACCTAGTGCAG", "binding signal": "9500 fluorescence intensity (a.u.)"}, {"sequence": "TTGTCGTCCACGCCGCCATCTCCTTGGTCATCCGCAACAACGGAGTCACCTAGTGCAG", "binding signal": "8350 fluorescence intensity (a.u.)"}, {"sequence": "CTCACCTTCTGCTCCTGGCTTTGCCTCGAATTATAACACACGGAGTCACCTAGTGCAG", "binding signal": "12800 fluorescence intensity (a.u.)"}, {"sequence": "TTCTTGTCTTCATCAGTTTTGTTAAATCGATCGGTGGTTGCGGAGTCACCTAGTGCAG", "binding signal": "10200 fluorescence intensity (a.u.)"}]}]}
